Some of the results follow.
Legend:
Test in all cases: log2 fold change, soluble protein after heating vs DMSO (PISA); higher = thermal stabilisation; K562 cells, 10 uM, 30 min; active = over 0.2 and 3.5 SD of the protein, either way, in both replicates (recomputed)
[1] = compound: COC1=CC=C(C=C1)CN2C=CC3=C2C=C(C=C3)C(=O)NO
Procedure, shortened: (§1)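 K562 cells at 2×10^6 cells/mL were exposed to 10 μM compound for 30 min, then aliquots were heated for 3 min across 48°C-58°C, pooled, and extracted in PBS containing 0.5% NP-40 at 4°C. The supernatant after 21,000xg for 90 min was taken as soluble protein and measured by TMTpro 16plex LC-MS/MS with channel sums equalised. Thermal stability is reported relative to control samples, with values from duplicates. Fold changes are given on a log2 scale.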

The chains behind the UniProt entries cited, without tags or fusion partners. Where a name states a change or a piece, a line headed by the entry shows the natural chain unless it says otherwise.
UniProt Q92783: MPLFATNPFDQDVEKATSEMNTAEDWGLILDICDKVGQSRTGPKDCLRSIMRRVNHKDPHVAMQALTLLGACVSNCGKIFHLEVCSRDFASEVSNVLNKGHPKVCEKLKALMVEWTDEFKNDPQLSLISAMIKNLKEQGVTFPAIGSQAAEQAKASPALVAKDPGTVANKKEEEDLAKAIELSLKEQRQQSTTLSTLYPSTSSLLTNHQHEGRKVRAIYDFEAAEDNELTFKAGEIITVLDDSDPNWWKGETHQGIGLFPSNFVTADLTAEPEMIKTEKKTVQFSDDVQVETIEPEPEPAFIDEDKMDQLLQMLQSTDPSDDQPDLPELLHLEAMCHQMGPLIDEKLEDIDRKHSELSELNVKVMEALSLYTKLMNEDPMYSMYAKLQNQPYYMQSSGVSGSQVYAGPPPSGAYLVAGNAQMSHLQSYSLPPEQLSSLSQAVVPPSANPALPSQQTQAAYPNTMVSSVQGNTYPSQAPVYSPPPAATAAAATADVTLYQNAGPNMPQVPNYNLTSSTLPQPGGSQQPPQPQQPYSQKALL
UniProt P61009: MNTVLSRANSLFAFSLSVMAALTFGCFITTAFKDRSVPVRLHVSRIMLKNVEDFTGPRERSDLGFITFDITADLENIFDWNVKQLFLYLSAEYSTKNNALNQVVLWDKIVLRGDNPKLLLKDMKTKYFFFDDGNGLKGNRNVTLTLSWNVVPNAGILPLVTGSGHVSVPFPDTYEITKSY
UniProt P50502: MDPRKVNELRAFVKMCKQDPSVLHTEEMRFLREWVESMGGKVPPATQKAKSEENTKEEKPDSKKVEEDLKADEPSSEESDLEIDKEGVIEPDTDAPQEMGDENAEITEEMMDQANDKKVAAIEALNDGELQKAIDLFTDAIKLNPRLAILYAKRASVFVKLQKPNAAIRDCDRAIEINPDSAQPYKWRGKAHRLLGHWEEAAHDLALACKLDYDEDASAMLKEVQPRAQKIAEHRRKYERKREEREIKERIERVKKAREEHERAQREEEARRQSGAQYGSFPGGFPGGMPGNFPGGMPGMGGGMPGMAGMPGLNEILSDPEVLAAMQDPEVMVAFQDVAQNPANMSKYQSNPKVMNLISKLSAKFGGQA
UniProt Q8WXA9: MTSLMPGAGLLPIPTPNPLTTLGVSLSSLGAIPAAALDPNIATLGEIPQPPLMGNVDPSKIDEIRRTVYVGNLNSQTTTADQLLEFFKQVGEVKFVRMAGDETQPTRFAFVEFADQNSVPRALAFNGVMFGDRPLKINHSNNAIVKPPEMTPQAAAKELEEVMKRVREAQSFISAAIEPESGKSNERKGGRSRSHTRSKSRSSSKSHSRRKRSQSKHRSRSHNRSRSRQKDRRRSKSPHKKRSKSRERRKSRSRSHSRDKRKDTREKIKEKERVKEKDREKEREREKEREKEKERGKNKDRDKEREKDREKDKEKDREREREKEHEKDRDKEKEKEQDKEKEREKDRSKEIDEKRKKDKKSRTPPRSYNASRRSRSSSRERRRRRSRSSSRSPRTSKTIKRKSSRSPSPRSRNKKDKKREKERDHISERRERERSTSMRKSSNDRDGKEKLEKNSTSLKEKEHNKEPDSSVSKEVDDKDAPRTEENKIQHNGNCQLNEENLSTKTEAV
UniProt P42229: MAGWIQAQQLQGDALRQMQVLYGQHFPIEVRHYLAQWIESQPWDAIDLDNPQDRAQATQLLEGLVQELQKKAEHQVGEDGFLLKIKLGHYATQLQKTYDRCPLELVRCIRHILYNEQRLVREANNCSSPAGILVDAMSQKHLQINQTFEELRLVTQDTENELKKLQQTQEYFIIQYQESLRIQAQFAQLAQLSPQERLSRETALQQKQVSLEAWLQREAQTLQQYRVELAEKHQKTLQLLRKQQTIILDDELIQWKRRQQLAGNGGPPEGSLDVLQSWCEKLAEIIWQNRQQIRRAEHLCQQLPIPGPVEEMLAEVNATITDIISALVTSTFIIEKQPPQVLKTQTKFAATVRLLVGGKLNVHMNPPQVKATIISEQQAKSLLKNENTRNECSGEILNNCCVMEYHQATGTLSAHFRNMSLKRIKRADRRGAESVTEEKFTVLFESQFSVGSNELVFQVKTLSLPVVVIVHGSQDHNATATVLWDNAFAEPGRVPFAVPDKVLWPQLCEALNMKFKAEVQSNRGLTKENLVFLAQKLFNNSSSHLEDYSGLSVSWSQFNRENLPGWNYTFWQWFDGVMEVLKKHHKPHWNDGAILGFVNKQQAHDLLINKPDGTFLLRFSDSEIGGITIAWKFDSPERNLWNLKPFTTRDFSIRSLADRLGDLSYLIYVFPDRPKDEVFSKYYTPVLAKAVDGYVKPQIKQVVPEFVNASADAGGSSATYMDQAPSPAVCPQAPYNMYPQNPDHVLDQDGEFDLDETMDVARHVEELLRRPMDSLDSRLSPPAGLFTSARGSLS
UniProt P78362, whole entry, looked up: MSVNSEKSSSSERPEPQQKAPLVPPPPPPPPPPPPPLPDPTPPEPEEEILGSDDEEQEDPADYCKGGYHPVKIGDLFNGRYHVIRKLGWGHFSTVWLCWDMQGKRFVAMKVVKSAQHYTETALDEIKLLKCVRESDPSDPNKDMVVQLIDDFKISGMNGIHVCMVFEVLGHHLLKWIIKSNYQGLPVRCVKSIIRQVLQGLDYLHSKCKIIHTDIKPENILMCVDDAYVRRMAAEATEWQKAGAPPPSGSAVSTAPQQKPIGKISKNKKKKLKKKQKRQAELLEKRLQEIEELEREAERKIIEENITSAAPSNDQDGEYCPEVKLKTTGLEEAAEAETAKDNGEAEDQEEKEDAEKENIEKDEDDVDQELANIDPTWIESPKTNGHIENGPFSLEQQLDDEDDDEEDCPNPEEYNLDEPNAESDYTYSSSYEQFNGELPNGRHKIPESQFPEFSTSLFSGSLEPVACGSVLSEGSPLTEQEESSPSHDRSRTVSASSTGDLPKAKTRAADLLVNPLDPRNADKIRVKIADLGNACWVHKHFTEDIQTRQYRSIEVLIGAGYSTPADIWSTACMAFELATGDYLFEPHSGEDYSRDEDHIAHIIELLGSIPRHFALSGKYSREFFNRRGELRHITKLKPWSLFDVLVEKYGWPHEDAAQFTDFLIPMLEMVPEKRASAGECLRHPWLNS
UniProt Q13247: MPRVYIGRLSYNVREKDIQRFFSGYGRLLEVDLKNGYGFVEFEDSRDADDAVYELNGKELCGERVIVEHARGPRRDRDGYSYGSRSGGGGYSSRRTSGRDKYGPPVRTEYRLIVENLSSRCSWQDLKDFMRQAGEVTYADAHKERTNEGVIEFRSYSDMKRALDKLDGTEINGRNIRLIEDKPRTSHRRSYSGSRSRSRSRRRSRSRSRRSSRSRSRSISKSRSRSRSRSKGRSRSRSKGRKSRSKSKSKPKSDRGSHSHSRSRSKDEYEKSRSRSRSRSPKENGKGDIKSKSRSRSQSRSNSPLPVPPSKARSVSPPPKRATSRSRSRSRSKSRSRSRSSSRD
UniProt O94768: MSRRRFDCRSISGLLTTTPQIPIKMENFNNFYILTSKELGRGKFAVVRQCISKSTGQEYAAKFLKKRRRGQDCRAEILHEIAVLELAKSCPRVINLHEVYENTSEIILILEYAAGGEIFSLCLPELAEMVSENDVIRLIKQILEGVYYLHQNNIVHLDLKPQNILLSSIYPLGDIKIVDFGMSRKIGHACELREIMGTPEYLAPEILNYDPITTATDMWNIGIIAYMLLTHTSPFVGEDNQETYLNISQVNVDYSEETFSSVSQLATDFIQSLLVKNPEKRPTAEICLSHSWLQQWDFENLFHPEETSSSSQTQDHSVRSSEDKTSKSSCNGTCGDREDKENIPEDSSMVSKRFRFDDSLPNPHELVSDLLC
UniProt Q05519: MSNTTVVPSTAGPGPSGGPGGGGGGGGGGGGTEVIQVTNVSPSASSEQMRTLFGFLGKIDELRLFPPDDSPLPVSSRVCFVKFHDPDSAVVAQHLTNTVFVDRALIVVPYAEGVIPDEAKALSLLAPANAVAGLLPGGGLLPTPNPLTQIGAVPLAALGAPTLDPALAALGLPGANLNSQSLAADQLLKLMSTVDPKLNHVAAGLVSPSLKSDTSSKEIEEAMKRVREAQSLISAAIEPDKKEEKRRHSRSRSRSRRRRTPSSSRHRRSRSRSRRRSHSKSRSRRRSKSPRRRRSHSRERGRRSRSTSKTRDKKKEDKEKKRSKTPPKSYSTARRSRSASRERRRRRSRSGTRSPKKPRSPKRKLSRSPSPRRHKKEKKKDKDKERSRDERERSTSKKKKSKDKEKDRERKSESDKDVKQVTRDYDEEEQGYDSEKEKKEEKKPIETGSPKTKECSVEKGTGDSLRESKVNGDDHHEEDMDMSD
UniProt Q16842: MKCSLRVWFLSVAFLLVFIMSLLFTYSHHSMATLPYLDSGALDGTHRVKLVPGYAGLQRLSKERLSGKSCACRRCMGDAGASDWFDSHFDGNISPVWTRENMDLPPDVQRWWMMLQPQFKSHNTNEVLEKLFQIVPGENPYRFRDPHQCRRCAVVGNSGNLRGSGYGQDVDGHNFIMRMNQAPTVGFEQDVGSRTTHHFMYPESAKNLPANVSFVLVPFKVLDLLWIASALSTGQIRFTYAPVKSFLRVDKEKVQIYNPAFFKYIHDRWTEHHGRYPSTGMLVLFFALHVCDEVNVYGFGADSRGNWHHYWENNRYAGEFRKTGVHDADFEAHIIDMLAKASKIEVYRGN
UniProt Q14849, whole entry, looked up: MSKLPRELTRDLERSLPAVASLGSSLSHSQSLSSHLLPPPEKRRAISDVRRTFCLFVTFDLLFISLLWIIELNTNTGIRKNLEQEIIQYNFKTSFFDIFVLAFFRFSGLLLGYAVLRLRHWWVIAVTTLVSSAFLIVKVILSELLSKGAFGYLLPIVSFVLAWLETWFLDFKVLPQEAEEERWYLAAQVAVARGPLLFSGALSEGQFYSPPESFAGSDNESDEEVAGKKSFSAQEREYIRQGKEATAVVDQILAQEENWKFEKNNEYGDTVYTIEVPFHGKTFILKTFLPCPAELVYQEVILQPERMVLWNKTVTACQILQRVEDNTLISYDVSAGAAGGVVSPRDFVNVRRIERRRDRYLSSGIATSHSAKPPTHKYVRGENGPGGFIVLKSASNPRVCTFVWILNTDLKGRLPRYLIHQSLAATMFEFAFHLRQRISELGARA
UniProt P09486: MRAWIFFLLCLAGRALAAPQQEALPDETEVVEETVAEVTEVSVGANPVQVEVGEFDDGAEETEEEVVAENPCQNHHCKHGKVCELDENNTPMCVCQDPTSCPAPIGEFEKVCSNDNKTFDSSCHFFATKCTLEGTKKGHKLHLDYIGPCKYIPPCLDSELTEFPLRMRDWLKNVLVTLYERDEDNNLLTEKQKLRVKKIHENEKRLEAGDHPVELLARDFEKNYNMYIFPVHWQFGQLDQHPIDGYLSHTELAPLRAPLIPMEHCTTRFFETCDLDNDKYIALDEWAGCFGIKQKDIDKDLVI
UniProt P08240: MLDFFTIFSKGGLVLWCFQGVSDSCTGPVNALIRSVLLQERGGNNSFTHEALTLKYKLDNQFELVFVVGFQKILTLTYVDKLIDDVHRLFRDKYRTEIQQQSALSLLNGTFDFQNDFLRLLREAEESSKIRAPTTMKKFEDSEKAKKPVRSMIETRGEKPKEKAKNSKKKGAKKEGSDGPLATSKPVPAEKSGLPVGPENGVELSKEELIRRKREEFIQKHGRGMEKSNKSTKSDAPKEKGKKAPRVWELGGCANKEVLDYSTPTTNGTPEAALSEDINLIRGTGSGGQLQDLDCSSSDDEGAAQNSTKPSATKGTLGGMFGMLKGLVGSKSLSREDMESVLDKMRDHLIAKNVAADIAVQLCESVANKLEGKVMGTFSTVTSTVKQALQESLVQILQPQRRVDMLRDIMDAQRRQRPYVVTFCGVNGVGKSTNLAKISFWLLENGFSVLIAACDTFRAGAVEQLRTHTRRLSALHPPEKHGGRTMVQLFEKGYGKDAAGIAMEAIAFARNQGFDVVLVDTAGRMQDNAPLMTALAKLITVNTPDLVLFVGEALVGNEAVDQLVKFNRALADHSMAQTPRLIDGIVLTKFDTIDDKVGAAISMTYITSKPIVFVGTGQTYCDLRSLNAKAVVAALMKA

filanesib = compound: CON(C)C(=O)N1N=C(c2cc(F)ccc2F)S[C@@]1(CCCN)c1ccccc1 [filanesib]
Procedure, shortened: as §1

zotarolimus = compound: CO[C@H]1C[C@@H]2CC[C@@H](C)[C@@](O)(O2)C(=O)C(=O)N2CCCC[C@H]2C(=O)O[C@H]([C@H](C)C[C@@H]2CC[C@H](n3cnnn3)[C@H](OC)C2)CC(=O)[C@H](C)/C=C(\C)[C@@H](O)[C@@H](OC)C(=O)[C@H](C)C[C@H](C)/C=C/C=C/C=C/1C [zotarolimus]
Procedure, shortened: as §1

idasanutlin = compound: COc1cc(C(=O)O)ccc1NC(=O)[C@@H]1N[C@@H](CC(C)(C)C)[C@](C#N)(c2ccc(Cl)cc2F)[C@H]1c1cccc(Cl)c1F [idasanutlin]
Procedure, shortened: as §1

alisertib = compound: COc1cc(Nc2ncc3c(n2)-c2ccc(Cl)cc2C(c2c(F)cccc2OC)=NC3)ccc1C(=O)O [alisertib]
Procedure, shortened: as §1

[2] = compound: COc1cc2nc(-c3cc(F)ccc3O)nc(N[C@@H]3CNC[C@H]3C(C)(C)O)c2cc1OC
Procedure, shortened: as §1

gefitinib = compound: COc1cc2ncnc(Nc3ccc(F)c(Cl)c3)c2cc1OCCCN1CCOCC1 [gefitinib]
Procedure, shortened: as §1

[3] = compound: COc1cccc2cc(-c3nc([C@H]4CC[C@H](C(=O)O)CC4)n4ncnc(N)c34)[nH]c12
Procedure, shortened: as §1

lapatinib = compound: CS(=O)(=O)CCNCc1ccc(-c2ccc3ncnc(Nc4ccc(OCc5cccc(F)c5)c(Cl)c4)c3c2)o1 [lapatinib]
Procedure, shortened: as §1

pictilisib = compound: CS(=O)(=O)N1CCN(Cc2cc3nc(-c4cccc5[nH]ncc45)nc(N4CCOCC4)c3s2)CC1 [pictilisib]
Procedure, shortened: as §1

Measured: log2 fold change

STAM (UniProt Q92783)
inactive: [1] 0.094 | filanesib -0.02 | zotarolimus -0.011 | idasanutlin -0.001 | alisertib -0.032 | [2] -0.006 | gefitinib -0.016 | [3] -0.015 | lapatinib -0.008 | pictilisib 0

SPCS3 (UniProt P61009)
inactive: [1] -0.114 | filanesib 0.054 | zotarolimus -0.017 | idasanutlin 0.067 | alisertib -0.05 | [2] 0.034 | gefitinib 0.004 | [3] -0.011 | lapatinib 0.007 | pictilisib -0.013

ST13 (UniProt P50502)
inactive: [1] 0.008 | filanesib -0.076 | zotarolimus 0.017 | idasanutlin -0.052 | alisertib -0.038 | [2] 0.007 | gefitinib 0 | [3] -0.007 | lapatinib -0.037 | pictilisib 0.006

SPTA1 (UniProt P02549)
inactive: [1] 0.015 | filanesib 0.218 | zotarolimus 0.111 | idasanutlin 0.16 | alisertib -0.099 | [2] -0.083 | gefitinib 0.007 | [3] -0.201 | lapatinib 0.097 | pictilisib -0.04

SREK1 isoform 2 (UniProt Q8WXA9)
inactive: [1] 0.26 | filanesib -0.1 | zotarolimus 0.053 | idasanutlin 0.086 | alisertib -0.096 | [2] -0.072 | gefitinib 0.066 | [3] 0.06 | lapatinib 0.108 | pictilisib -0.001

STAT5A (UniProt P42229)
inactive: [1] 0.034 | filanesib 0.018 | zotarolimus 0.094 | idasanutlin 0.032 | alisertib -0.056 | [2] 0.009 | gefitinib 0.047 | [3] -0.128 | lapatinib 0 | pictilisib -0.096

SRPK2 isoform 2 (UniProt P78362)
inactive: [1] -0.081 | filanesib 0.308 | zotarolimus 0 | idasanutlin 0.213 | alisertib -0.052 | [2] -0.067 | gefitinib -0.073 | [3] -0.146 | lapatinib 0.119 | pictilisib -0.081

SRSF6 (UniProt Q13247)
inactive: [1] -0.209 | filanesib 0.218 | zotarolimus -0.118 | idasanutlin 0.375 | alisertib -0.105 | [2] -0.134 | gefitinib 0.033 | [3] -0.032 | lapatinib 0.163 | pictilisib -0.473

STK17B (UniProt O94768)
inactive: [1] 0.01

SRSF11 (UniProt Q05519)
inactive: [1] 0.084 | filanesib 0.093 | zotarolimus 0.012 | idasanutlin -0.021 | alisertib -0.079 | [2] 0.017 | gefitinib 0.023 | [3] 0.018 | lapatinib 0 | pictilisib -0.164

ST3GAL2 (UniProt Q16842)
inactive: [1] 0.087 | filanesib 0.124 | zotarolimus 0.092 | idasanutlin 0.075 | alisertib -0.134 | [2] 0.1 | gefitinib 0.187 | [3] -0.043 | lapatinib 0.17 | pictilisib 0.102

STARD3 (UniProt Q14849)
inactive: [1] 0 | filanesib -0.147 | zotarolimus -0.004 | idasanutlin 0.109 | alisertib 0.018 | [2] 0.038 | gefitinib 0.075 | [3] 0.035 | lapatinib 0.043 | pictilisib -0.047

SPARC (UniProt P09486)
inactive: [1] -0.011 | filanesib 0.126 | zotarolimus -0.139 | idasanutlin 0.01 | alisertib -0.097 | [2] -0.09 | gefitinib 0.013 | [3] 0.104 | lapatinib 0.114 | pictilisib 0.024

SRPRA (UniProt P08240)
inactive: [1] 0.008 | filanesib -0.022 | zotarolimus -0.005 | idasanutlin -0.107 | alisertib -0.005 | [2] 0.122 | gefitinib -0.032 | [3] -0.002 | lapatinib 0.013 | pictilisib -0.012
